PubChem BioAssay AID1224828 – NIAID, 2016
This is an unselected part of about 17,000 reagents. 762 of all reagents (4.5%) count as active. 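Active calls include both raised and lowered p65 entry, mostly lowered; wells with fewer than 50 cells lack a z-score.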 Raw values are not corrected between plates. Reagent sequences are not shown.

- Screen: 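Regulators linking TLR4 signalling to p65 nuclear translocation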 (primary screen)
- System: mouse RAW264.7 G9 macrophage reporter cells (GFP-p65, Tnf promoter-mCherry)
- Knock-down reagent: siRNA pool against mouse genes, 100 nM
- Time to read-out: 2 days siRNA transfection, then 40 min LPS before fixation
- Treatment: LPS (Salmonella minnesota R595) at 10 ng/ml
- Measurement: 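Microscopy ratio of nuclear to perinuclear-ring GFP-p65 signal, scaled to the plate median; gene score is the average of two replicate robust z-scores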
- Direction: p65 translocation robust z-score: higher = more nuclear NF-kappaB p65 after LPS than the plate median; nuclear/cytoplasmic p65 ratio: higher = more nuclear NF-kappaB p65
- Hit rule: 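Called active when z exceeds 3.3 or falls under -1.56 (median of Tlr4 controls), giving activity score of at least 50; no calls for control wells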
- Meaning of the calls: active = hit (p65 shift raised or lowered); inactive = no clear change

no.	gene symbol	p65 translocation robust z-score	nuclear/cytoplasmic p65 ratio, rep 1	nuclear/cytoplasmic p65 ratio, rep 2	low cell count flag	Call
1	Tdp1	-0.04	1.49	1.72	enough cells to score	inactive
2	Defb15	0.31	1.63	1.57	enough cells to score	inactive
3	Tarm1	0.54	1.55	1.57	enough cells to score	inactive
4	Phf14	0.09	1.41	1.32	enough cells to score	inactive
5	Pglyrp1	1.03	1.67	1.51	enough cells to score	inactive
6	4932414N04Rik		1.06	1.04	fewer than 50 cells per well; well left out of scoring	inactive
7	Or13a1	-1.76	1.5	1.2	enough cells to score	active
8	Cphx1	-0.12	1.38	1.55	enough cells to score	inactive
9	Nol9		1.06	1.2	fewer than 50 cells per well; well left out of scoring	inactive
10	Rai1	-0.63	1.47	1.39	enough cells to score	inactive
11	Muc15	-0.39	1.5	1.51	enough cells to score	inactive
12	Gemin7	-1.54	1.36	1.26	enough cells to score	inactive
13	Ifng	-0.8	1.43	1.32	enough cells to score	inactive
14	Apob	1.16	1.82	1.76	enough cells to score	inactive
15	Nipal4	-0.11	1.4	1.54	enough cells to score	inactive
16	Kcnv1	0.92	1.6	1.5	enough cells to score	inactive
17	Or8c15	-0.85	1.33	1.17	enough cells to score	inactive
18	Jund	-1.07	1.33	1.36	enough cells to score	inactive
19	V1rd18		1.16	1.34	fewer than 50 cells per well; well left out of scoring	inactive
20	Ddx46	0.24	1.55	1.63	enough cells to score	inactive
21	Or1a1b	0.61	1.65	1.62	enough cells to score	inactive
22	Palmd	-0.61	1.39	1.15	enough cells to score	inactive
23	Prex1	-1.44	1.26	1.32	enough cells to score	inactive
24	Ralb	-0.5	1.45	1.44	enough cells to score	inactive

In a second layout: 2 of the entries above.
gene symbol,p65 translocation robust z-score,"nuclear/cytoplasmic p65 ratio, rep 1","nuclear/cytoplasmic p65 ratio, rep 2",low cell count flag,Call
Jund,-1.07,1.33,1.36,enough cells to score,inactive
V1rd18,,1.16,1.34,fewer than 50 cells per well; well left out of scoring,inactive
